The text below walks through data of paper PMC12608094, “STN1 Shields CTC1 From TRIM32‐Mediated Ubiquitination to Prevent Cellular Aging” (Aging Cell, 2025).

Sequences of proteins named here, by UniProt entry; tags and fusion partners are left off.
UniProt Q13049: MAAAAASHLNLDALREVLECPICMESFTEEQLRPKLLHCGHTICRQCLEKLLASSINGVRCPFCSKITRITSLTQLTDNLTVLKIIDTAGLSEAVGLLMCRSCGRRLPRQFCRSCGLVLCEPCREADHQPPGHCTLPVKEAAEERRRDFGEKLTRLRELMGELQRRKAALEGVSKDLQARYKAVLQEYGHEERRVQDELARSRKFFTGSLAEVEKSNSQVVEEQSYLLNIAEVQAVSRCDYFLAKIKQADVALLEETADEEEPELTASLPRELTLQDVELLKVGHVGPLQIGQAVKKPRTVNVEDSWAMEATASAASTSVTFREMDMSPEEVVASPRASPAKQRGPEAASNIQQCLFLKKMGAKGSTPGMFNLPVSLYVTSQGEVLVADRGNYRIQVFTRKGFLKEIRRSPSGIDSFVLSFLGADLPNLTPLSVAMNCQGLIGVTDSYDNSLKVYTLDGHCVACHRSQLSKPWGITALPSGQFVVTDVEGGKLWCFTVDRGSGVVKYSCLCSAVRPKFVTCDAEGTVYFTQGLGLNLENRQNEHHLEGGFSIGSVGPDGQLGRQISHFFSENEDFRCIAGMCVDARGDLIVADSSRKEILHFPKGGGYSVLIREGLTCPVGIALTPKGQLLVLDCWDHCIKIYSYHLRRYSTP

These are yes or no findings as the source states them, for the method shown. Binding seen in cells or lysates may run through a third protein. Some binding calls cover weakened binding; strength is not graded here. Tags and fused reporters may be left off the sequences shown.

The target in assay [1] is T1, Flag-tagged CTC1 (wild type) (human, UniProt Q2NKJ3 1-1217).
T1 sequence (looked up): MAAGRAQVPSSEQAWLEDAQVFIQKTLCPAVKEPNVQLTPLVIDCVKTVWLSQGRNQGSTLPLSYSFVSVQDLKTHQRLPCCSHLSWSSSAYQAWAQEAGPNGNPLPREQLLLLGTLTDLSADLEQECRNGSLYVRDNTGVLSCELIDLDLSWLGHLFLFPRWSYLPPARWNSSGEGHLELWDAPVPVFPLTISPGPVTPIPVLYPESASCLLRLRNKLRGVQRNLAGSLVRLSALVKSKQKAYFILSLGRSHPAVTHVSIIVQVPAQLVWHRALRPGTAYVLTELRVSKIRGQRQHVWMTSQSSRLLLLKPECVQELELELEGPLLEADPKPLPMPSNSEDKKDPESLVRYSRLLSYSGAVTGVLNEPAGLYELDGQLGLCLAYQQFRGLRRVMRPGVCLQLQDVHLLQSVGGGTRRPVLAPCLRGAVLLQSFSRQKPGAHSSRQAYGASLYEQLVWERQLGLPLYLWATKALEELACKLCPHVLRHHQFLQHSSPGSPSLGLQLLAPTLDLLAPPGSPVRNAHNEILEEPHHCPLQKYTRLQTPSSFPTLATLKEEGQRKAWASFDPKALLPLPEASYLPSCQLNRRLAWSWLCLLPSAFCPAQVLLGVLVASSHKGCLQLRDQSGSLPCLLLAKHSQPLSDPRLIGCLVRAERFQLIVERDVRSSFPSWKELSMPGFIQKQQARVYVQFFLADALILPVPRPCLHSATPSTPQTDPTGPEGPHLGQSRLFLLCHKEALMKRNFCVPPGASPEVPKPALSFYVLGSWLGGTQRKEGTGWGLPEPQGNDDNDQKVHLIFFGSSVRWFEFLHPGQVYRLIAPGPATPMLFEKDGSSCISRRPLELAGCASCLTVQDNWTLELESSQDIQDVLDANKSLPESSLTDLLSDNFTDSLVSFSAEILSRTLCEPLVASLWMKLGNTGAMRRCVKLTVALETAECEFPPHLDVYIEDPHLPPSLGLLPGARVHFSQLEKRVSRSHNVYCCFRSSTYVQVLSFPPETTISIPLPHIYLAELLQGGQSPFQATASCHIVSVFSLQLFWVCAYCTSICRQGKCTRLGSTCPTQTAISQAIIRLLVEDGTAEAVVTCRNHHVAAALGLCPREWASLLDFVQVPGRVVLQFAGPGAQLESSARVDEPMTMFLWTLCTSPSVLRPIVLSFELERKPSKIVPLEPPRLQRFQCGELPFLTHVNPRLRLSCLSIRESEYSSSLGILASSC
The experiment in a line: co-IP; HEK293T lysates in NP-40 lysis buffer (20 mM Tris pH 8.0, 100 mM NaCl, 1 mM MgCl2, 0.1% Igepal); Flag-CTC1 precipitated with Flag M2 beads, 4°C, 2 h; Western blot. A general note: Immunoblotting shows a protein as a band on a membrane.

Assay [2] has as its target T1, Flag-tagged CTC1 (wild type). The experiment in a line: pull-down; GST pull-down from HEK293T cell lysates with Glutathione-sepharose beads; GST-TRIM32 with WT or 1196Δ7 Flag-CTC1, with or without HA-STN1.
Assay [3] addresses T2, Flag-tagged CTC1 expressed in Sf9 cells (human) (UniProt Q2NKJ3).
T2 sequence: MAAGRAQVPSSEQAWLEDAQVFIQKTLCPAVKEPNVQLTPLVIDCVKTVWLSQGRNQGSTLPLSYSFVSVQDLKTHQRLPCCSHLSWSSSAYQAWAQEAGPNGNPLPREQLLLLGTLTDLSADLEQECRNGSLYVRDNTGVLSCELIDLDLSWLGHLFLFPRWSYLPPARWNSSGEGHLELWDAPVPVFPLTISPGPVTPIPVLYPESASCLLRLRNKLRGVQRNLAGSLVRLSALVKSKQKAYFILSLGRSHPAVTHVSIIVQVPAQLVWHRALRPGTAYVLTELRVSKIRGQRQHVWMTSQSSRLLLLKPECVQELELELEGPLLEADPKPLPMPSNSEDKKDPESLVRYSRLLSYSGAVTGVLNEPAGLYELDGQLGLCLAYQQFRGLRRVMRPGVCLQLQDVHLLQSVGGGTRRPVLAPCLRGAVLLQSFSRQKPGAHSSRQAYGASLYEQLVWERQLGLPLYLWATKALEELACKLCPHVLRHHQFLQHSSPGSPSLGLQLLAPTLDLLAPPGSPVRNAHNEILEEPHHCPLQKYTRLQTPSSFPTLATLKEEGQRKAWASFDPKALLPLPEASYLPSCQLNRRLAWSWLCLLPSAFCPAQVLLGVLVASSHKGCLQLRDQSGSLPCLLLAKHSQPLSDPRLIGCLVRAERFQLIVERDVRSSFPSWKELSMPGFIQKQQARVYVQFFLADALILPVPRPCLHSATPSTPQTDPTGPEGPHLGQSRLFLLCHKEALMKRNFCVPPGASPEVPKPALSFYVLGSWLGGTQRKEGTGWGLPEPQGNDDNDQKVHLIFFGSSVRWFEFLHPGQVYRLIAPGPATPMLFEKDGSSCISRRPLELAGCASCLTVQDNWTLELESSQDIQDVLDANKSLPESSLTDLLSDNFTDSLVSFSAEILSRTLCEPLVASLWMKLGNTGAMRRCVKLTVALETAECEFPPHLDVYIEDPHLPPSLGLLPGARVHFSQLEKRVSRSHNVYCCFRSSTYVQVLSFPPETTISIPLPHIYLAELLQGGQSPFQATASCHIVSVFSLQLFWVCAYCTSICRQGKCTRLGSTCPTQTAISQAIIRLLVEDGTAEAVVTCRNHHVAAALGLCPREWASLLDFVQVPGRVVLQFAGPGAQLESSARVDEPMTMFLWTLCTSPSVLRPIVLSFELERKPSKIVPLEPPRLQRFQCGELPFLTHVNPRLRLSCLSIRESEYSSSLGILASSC
The experiment in a line: co-IP; Sf9 cells co-expressing Flag-CTC1 and His-STN1; lysate on Flag M2 beads 1 h at 4°C, washed with TBS, eluted with 3xFLAG peptide (co-purification).

For the molecule “GST-tagged TRIM32 expressed in HEK293T cells (from UniProt Q13049 1-653) (enzyme)”, in assay [1], the binding result was “binds”.

B1: HA-tagged STN1 (wild type) (natural protein, human, UniProt Q9H668 1-368, looked up)
chain: MQPGSSRCEEETPSLLWGLDPVFLAFAKLYIRDILDMKESRQVPGVFLYNGHPIKQVDVLGTVIGVRERDAFYSYGVDDSTGVINCICWKKLNTESVSAAPSAARELSLTSQLKKLQETIEQKTKIEIGDTIRVRGSIRTYREEREIHATTYYKVDDPVWNIQIARMLELPTIYRKVYDQPFHSSALEKEEALSNPGALDLPSLTSLLSEKAKEFLMENRVQSFYQQELEMVESLLSLANQPVIHSASSDQVNFKKDTTSKAIHSIFKNAIQLLQEKGLVFQKDDGFDNLYYVTREDKDLHRKIHRIIQQDCQKPNHMEKGCHFLHILACARLSIRPGLSEAVLQQVLELLEDQSDIVSTMEHYYTAF
On to B1, for which the binding entry in assay [2] is “binds”.

B2: His-tagged STN1 co-expressed with Flag-CTC1 in Sf9 cells (protein, UniProt Q9H668 1-368)
chain: MQPGSSRCEEETPSLLWGLDPVFLAFAKLYIRDILDMKESRQVPGVFLYNGHPIKQVDVLGTVIGVRERDAFYSYGVDDSTGVINCICWKKLNTESVSAAPSAARELSLTSQLKKLQETIEQKTKIEIGDTIRVRGSIRTYREEREIHATTYYKVDDPVWNIQIARMLELPTIYRKVYDQPFHSSALEKEEALSNPGALDLPSLTSLLSEKAKEFLMENRVQSFYQQELEMVESLLSLANQPVIHSASSDQVNFKKDTTSKAIHSIFKNAIQLLQEKGLVFQKDDGFDNLYYVTREDKDLHRKIHRIIQQDCQKPNHMEKGCHFLHILACARLSIRPGLSEAVLQQVLELLEDQSDIVSTMEHYYTAF
Take B2: the binding result in assay [3] is recorded as “binds”.
